Data source: PubChem BioAssay AID504786 (Drosophila RNAi Screening Center, 2011)

Purpose: 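Fly genes required for HIF-dependent transcription when hypoxia is mimicked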 (primary screen)
System: Drosophila S2 cells with a stable HIF luciferase reporter
Reagent: long dsRNA against Drosophila genes, about 0.2 µg dsRNA per well of a 384-well plate
Duration: three days of knock-down, then 20 h of DFO before reading
Challenge: desferrioxamine (DFO) at 100 µM, an iron chelator that mimics hypoxia, for 20 h
Measurement: 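HIF reporter luminescence in cells given 100 µM DFO for 20 h, using the mouse ldh-a hypoxia-response element, scored as per-plate z-scores; higher means greater loss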
Direction: z-score: higher = stronger loss of HIF reporter signal
The deposit covers about 21,000 reagents; shown is a random part of those that have a named target and a result. 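Primary screen; positive scores mean lost reporter signal, so the sign may be inverted from the usual convention.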 A plus sign joins genes that one reagent is predicted to hit.

gene | dsRNA | z-score, replicate 1 | z-score, replicate 2 | z-score, replicate 3 | z-score, replicate 4
Gpo3 | DRSC01978 | -0.3 | -0.3 | – | –
ph-p | DRSC18820 | -0.4 | -0.3 | – | –
CG9921 | DRSC20220 | -0.4 | -0.3 | – | –
CG2186 | DRSC19838 | -0.1 | 0.4 | – | –
U3-55K | DRSC05982 | 0.3 | 0.9 | – | –
Ndae1 | DRSC00975 | 0.3 | 1.2 | – | –
Ndae1 | DRSC02770 | -0.3 | -0.2 | – | –
CG9400 | DRSC20182 | -0.3 | 0 | – | –
CG10005 | DRSC14172 | -0.1 | -0.5 | – | –
CG34007 | DRSC01790 | -0.5 | -0.2 | – | –
CG10132 | DRSC02013 | -0.2 | -0.3 | – | –
CG5056 | DRSC02808 | -0.2 | -0.5 | – | –
Sply | DRSC07299 | 0 | -0.3 | – | –
M1BP | DRSC16566 | 1.9 | 2 | – | –
sage | DRSC14580 | -0.5 | -0.5 | – | –
Prosbeta5R2 | DRSC01617 | -0.3 | 0 | – | –
CG13288 | DRSC09962 | -0.2 | 0.1 | – | –
Datp | DRSC01102 | -0.3 | -0.3 | – | –
L | DRSC06666 | -0.2 | 0.4 | – | –
L | DRSC06668 | -0.2 | -0.1 | – | –
CG13481 | DRSC10023 | -0.2 | -0.2 | – | –
CG7320 | DRSC10810 | -0.3 | 0.2 | – | –
CG31091 | DRSC15933 | -0.3 | -0.4 | – | –
CG32379 | DRSC10318 | 0 | 1 | – | –
Sym | DRSC12301 | 2.4 | 2.8 | – | –
Tip60 | DRSC18661 | 0.1 | 1.4 | – | –
CG7886 | DRSC16333 | -0.3 | -0.6 | – | –
mthl4 | DRSC06998 | -0.2 | -0.6 | – | –
Got1 | DRSC07177 | -0.3 | -0.2 | – | –
Fen1 | DRSC07415 | -0.3 | 0.1 | – | –
CG5404 | DRSC15793 | -0.2 | 0.1 | – | –
CG3071 | DRSC18526 | -0.3 | -0.5 | – | –
CG31200 | DRSC15285 | 0.3 | -0.1 | – | –
byn | DRSC11332 | -0.1 | -0.4 | – | –
Anp | DRSC14112 | -0.1 | 0.4 | – | –
CG5033 | DRSC07410 | -0.2 | -0.2 | – | –
Wnt6 | DRSC02795 | -0.3 | -0.5 | – | –
CG13407 | DRSC14583 | 0.1 | -0.1 | – | –
CG2209 | DRSC19843 | -0.1 | 0.8 | – | –
jumu | DRSC16651 | 0.7 | 0.8 | – | –
rhi | DRSC05996 | -0.2 | 0.1 | – | –
BI-1 | DRSC10782 | -0.2 | -0.2 | – | –
SdhA | DRSC07547 | -0.2 | -0.2 | – | –
GC1 | DRSC15322 | -0.3 | 0 | – | –
CG18493 | DRSC15334 | -1 | -0.2 | – | –
SPH93 | DRSC02978 | -0.2 | -0.4 | – | –
Prosalpha4T1 | DRSC16800 | 0.4 | -0.3 | – | –
CG12914 | DRSC06229 | -0.3 | -0.3 | – | –
CG6569 | DRSC16067 | 0.3 | 0.2 | – | –
CG32450 | DRSC11546 | 0.1 | 0.1 | – | –
CG1494 | DRSC20509 | 0.1 | -0.1 | – | –
Rpp14b | DRSC15063 | 0.1 | 0.3 | – | –
CG5756 | DRSC06950 | -0.3 | -0.2 | – | –
fmt | DRSC09717 | 0 | -0.2 | – | –
CG32687 | DRSC18210 | -0.4 | 0.3 | – | –
CG32687 | DRSC18237 | -0.3 | -0.1 | – | –
Atg10 + CG18853 + CG12822 | DRSC20757 | -0.8 | -0.4 | – | –
CG11200 | DRSC06060 | -0.2 | -0.5 | – | –
Strump | DRSC09872 | -0.2 | -0.1 | – | –
CG2767 | DRSC15451 | -0.3 | -0.2 | – | –
Nup98-96 | DRSC14209 | 2 | 3.6 | – | –
Nup98-96 | DRSC14210 | 4.6 | 4.1 | – | –
rec | DRSC14998 | -0.2 | -0.2 | – | –
rec | DRSC15656 | -0.3 | -0.6 | – | –
Cyp312a1 | DRSC11128 | -0.2 | -0.5 | – | –
CG31683 + CG18858 | DRSC02703 | -0.3 | -0.2 | – | –
VhaM9.7-c | DRSC08204 | -0.2 | -0.2 | – | –
CG13558 | DRSC04196 | -0.4 | -0.2 | – | –
brp | DRSC06245 | -0.3 | -0.6 | – | –
brp | DRSC06246 | -0.3 | -0.4 | – | –
brp | DRSC06801 | -0.3 | -0.4 | – | –
Stat92E | DRSC16870 | 0.2 | 0.2 | – | –
CG1690 | DRSC06636 | 0.1 | 0.1 | – | –
Khc-73 | DRSC07449 | -0.1 | 0.2 | – | –
GLS | DRSC07261 | -0.2 | 0.5 | – | –
sPLA2 | DRSC06041 | -0.3 | -0.6 | – | –
Abcd3 | DRSC19488 | 0.6 | 0 | – | –
CG9240 | DRSC20177 | -0.4 | -0.9 | – | –
CG17325 + CG42305 | DRSC02602 | -0.4 | -0.3 | – | –
Galphaf | DRSC11171 | -0.1 | -0.8 | – | –
Spn55B | DRSC07694 | -0.4 | -0.4 | -0.7 | -0.4
CG11413 + CG4622 | DRSC04109 | 0.2 | 0 | – | –
Cp18 | DRSC11120 | -0.2 | -0.2 | – | –
CG32148 | DRSC09338 | -0.1 | 0 | – | –
CG6527 | DRSC10659 | -0.2 | -0.1 | – | –
Pgd | DRSC18697 | -0.3 | -0.2 | – | –
Nadk2 | DRSC07072 | -0.3 | -0.6 | – | –
Ocrl | DRSC18576 | -0.4 | -0.7 | – | –
CG31777 | DRSC00201 | 0.4 | -0.3 | – | –
CG8243 | DRSC07122 | -0.3 | -0.7 | – | –
rho-6 | DRSC02588 | -0.4 | -0.3 | – | –
CG17684 | DRSC07724 | -0.1 | -0.1 | – | –
CG17684 | DRSC21166 | -0.3 | -0.4 | – | –
Kpc2 | DRSC07635 | -0.2 | -0.4 | – | –
kipf | DRSC15446 | -0.4 | -1.1 | -0.7 | -0.3
l(2)03659 | DRSC07269 | -0.3 | -0.8 | – | –
l(2)03659 | DRSC07638 | -0.3 | -0.5 | – | –
didum | DRSC07603 | -0.3 | -0.6 | – | –
CG13074 | DRSC09957 | -0.3 | -0.2 | – | –
CG2187 | DRSC15425 | -0.3 | 0 | – | –
Acyp | DRSC01861 | 0 | -0.3 | – | –
CG31606 | DRSC01012 | -0.4 | -0.4 | – | –
Dph1 | DRSC09851 | -0.3 | -0.4 | – | –
Cp190 | DRSC16607 | -0.1 | -0.1 | – | –
snRNP-U1-70K | DRSC03612 | -0.3 | -0.1 | -0.8 | -0.1
CG33268 | DRSC10143 | -0.1 | 0 | – | –

Limited to “z-score, replicate 2” (13 entries from above):
CG12914 [DRSC06229]: -0.3
CG6569 [DRSC16067]: 0.2
CG32450 [DRSC11546]: 0.1
CG1494 [DRSC20509]: -0.1
Rpp14b [DRSC15063]: 0.3
CG5756 [DRSC06950]: -0.2
fmt [DRSC09717]: -0.2
CG32687 [DRSC18210]: 0.3
CG32687 [DRSC18237]: -0.1
Atg10 + CG18853 + CG12822 [DRSC20757]: -0.4
CG11200 [DRSC06060]: -0.5
Strump [DRSC09872]: -0.1
CG2767 [DRSC15451]: -0.2
